# Experimental data as given in US20040115749A1, “Cardiovascular disease and thrombotic risk diagnostic tests” (priority 2001, published 2004).
# A unit is not stated for every read-out.
# Assay: Plasma 13-HODE level by 13(S)-HODE ELISA kit
# Parameters: species or system human
# Conditions: for Plasma 13-HODE level: means ± sem
compound,measurement,setting,value
"CCCCCC(O)/C=C/C=C\CCCCCCCC(=O)O (centres unmarked) [13-HODE, 13-hydroxyoctadeca-9Z, 11E-dienoic acid]",Plasma 13-HODE (ng/ml),"BRAT study patients with no (cardio)vascular thrombotic events in 2 years after CABG, range","4,100-5308 ng/ml"
same,Plasma 13-HODE,"BRAT study patients, smokers with events, range",>6000 ng/mL
same,plasma 13-HODE levels,"CABG patients <50 years of age, mean±sem","1,811±326"
same,Plasma 13-HODE level,"CABG patients at time of surgery, females, 51-60 years",1616 ± 290 ng/mL
same,Plasma 13-HODE level,"CABG patients at time of surgery, females, 61-70 years",1953 ± 401 ng/mL
same,Plasma 13-HODE level,"CABG patients at time of surgery, females, <50 years",1532 ± 357 ng/mL
same,Plasma 13-HODE level,"CABG patients at time of surgery, males, 51-60 years",1739 ± 164 ng/mL
same,Plasma 13-HODE level,"CABG patients at time of surgery, males, 61-70 years",2933 ± 732 ng/mL
same,Plasma 13-HODE level,"CABG patients at time of surgery, males, <50 years",1775 ± 205 ng/mL
same,Plasma 13-HODE level,"CABG patients at time of surgery, males, >70 years",3120 ± 1394 ng/mL
same,plasma 13-HODE levels in CABG patients relative to healthy volunteers,CABG patients versus healthy volunteers of the same age,> 10 fold
same,plasma 13-HODE levels,CABG patients who were smokers,> 6000 ng/mL
same,Plasma 13-HODE level,"healthy volunteers, females, 51-60 years",417 ± 25 ng/mL
same,Plasma 13-HODE level,"healthy volunteers, females, 61-70 years",523 ± 60 ng/mL
same,Plasma 13-HODE level,"healthy volunteers, females, <50 years",419 ± 25 ng/mL
same,Plasma 13-HODE level,"healthy volunteers, males, 51-60 years",553 ± 100 ng/mL
same,Plasma 13-HODE level,"healthy volunteers, males, 61-70 years",532 ± 50 ng/mL
same,Plasma 13-HODE level,"healthy volunteers, males, <50 years",441 ± 60 ng/mL
same,plasma 13-HODE levels,"healthy volunteers, range",214 to 670 ng/mL
same,plasma 13-HODE levels,"patients who did not suffer an event after CABG, range",4100 to 5308 ng/mL
